Test [1] deals with FLAG-tagged ferrochelatase (N-terminal 3x FLAG-tag on FeCH) (Rhodobacter sphaeroides) (UniProt Q3IYK5). The experiment in a line: affinity purification with mass spectrometry; FLAG immunoprecipitation of β-DDM-solubilised FLAG-FeCH lysates (cells grown oxygen-limited or aerobically) on anti-FLAG M2 resin; eluates digested in solution with trypsin, peptides analysed by mass spectrometry.

By UniProt entry, the sequences of proteins in these tests, tags left out. Where a name states a change or a piece, a line headed by the entry shows the natural chain unless it says otherwise.
UniProt Q3IYK5: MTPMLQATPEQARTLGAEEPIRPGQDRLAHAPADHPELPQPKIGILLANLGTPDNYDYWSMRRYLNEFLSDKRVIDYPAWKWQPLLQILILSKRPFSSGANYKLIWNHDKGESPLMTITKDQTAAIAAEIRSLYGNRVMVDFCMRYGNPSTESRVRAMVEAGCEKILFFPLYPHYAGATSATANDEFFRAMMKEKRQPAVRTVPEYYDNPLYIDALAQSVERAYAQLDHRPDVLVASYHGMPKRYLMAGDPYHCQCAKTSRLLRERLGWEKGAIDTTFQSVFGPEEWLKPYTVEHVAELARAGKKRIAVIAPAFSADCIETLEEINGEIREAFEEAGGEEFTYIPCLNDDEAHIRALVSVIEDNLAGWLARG
UniProt Q3J026: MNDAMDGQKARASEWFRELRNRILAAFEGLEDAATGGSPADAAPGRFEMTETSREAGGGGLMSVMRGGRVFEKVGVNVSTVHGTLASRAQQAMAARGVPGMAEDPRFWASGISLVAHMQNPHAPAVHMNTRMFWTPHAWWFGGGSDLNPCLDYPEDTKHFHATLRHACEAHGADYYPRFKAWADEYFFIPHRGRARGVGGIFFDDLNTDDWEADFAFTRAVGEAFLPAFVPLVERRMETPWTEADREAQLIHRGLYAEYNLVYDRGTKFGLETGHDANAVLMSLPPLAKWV
UniProt P33770: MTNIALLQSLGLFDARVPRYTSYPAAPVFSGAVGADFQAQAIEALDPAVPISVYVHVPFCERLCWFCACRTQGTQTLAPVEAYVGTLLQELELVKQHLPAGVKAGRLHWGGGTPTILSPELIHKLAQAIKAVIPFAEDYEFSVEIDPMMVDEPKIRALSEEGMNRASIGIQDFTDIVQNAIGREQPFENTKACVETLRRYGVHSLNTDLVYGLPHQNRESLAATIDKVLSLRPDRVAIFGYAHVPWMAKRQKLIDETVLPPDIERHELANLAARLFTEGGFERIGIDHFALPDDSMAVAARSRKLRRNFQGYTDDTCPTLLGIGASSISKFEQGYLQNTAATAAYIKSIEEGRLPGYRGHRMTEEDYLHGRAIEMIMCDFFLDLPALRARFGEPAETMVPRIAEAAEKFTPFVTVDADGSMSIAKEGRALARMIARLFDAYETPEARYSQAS
UniProt Q3J2T7: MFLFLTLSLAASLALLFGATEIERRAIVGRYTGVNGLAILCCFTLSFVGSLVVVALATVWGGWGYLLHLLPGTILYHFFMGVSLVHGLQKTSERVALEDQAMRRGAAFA

Test [2] shares this target. The test is described as follows: affinity purification with mass spectrometry; FLAG immunoprecipitation of β-DDM-solubilised lysates of oxygen-limited cells on anti-FLAG M2 affinity resin, washed with 0.04% β-DDM, eluted with FLAG peptide; eluates on SDS-PAGE (Coomassie, anti-FLAG immunoblot), bands excised, in-gel tryptic digestion, nanoLC-MS/MS.

Results are given in words; binding and its absence hold for the method and conditions named. In cells and extracts the contact can be indirect. These calls come from enrichment with a bait or labelling near it, and not all partners need be listed.

For “HemF (aerobic coproporphyrinogen oxidase) (from UniProt Q3J026) (enzyme)”, the binding entry in test [1] was “binds”. Still for that read-out and setting: the result for “HemN (anaerobic coproporphyrinogen oxidase) (from UniProt P33770) (enzyme)” reads “binds”.

For “protein product of the RSP_6067 gene (from UniProt Q3J2T7)”, the binding result in test [2] is given as “binds”.
